# Some of the results follow. Shown are side measurements of this screen, not its main read-out; they come without a call. The list favours compounds with an active or inconclusive main result. The note in brackets gives the kind of curve behind each potency; many fits are weak.
# Assay: Cell signaling CRE-BLA (Fsk stim)
# Settings: CHO CRE-bla reporter (cAMP response element driving beta-lactamase), forskolin EC10, beta-lactamase ratio; measured here: 460 nm blue channel
# Summary of the method: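 Modulation of forskolin-driven signalling is measured in CHO cells carrying a CRE-controlled beta-lactamase reporter. Cells are stimulated with EC10 NKH 477 in the presence of titrated compound for 3 h at 37 °C, then loaded with CCF4 for 2 h at room temperature.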
row,Structure (SMILES),AC50
1,CCCOc1ccccc1C1CC(=O)Nc2cc3c(cc21)OCCO3 (stereo unspecified),"5.01 µM [rising, partial curve]"
2,COc1cccc(Cn2c(=O)c(-c3ccccc3)nc3cnc(N4CCNCC4)nc32)c1,"6.31 µM [rising, partial curve]"
3,O=C(Nc1cccnc1)c1cnn2cccnc12,"10 µM [rising, single point]"
4,Cn1ccnc1Sc1nc2ccccc2nc1NS(=O)(=O)c1ccccc1,"3.16 µM [falling, single point]"
5,CCCNC(=O)c1c(N)n(-c2cccc(OC)c2)c2nc3ccccc3nc12,"12.6 µM [rising, partial curve]"
6,CCC(=O)NC(=Nc1nc2ccccc2s1)NC(=O)CC,"25.1 µM [rising, single point]"
7,Cc1cc(O)c(C(C)(C)C)cc1Sc1cc(C(C)(C)C)c(O)cc1C,"7.94 µM [falling, full curve]"
8,CCOc1cc2c(C#N)c(N3CCOCC3)nc(N)c2c(N)n1,"2.51 µM [rising, full curve]"
9,Cn1c(=O)cc(-c2ccccc2)c2ccccc21,"15.8 µM [rising, single point]"
10,CCC(=O)c1ccccc1OCCN1C(=O)NC(C)(C)C1=O,"20 µM [rising, single point]"
11,C[C@@]1(C(NC(=O)Cc2ccc(C(F)(F)F)cc2)c2ccc(-c3ccccc3)cc2)C[C@H]1C1CCCCC1 (stereo partly specified),"7.94 µM [rising, partial curve, poor fit]"
12,COC(=O)[C@@]1(Cc2ccc(F)cc2)[C@H]2c3cc(C(=O)N(C)C)n(Cc4ccc(O)c(OC)c4)c3C[C@H]2CN1C(=O)c1ccccc1,"0.158 µM [rising, full curve]"
13,CN(C)c1ncc2nc(-c3ccc(F)cc3)c(=O)n(C[C@H]3CCCO3)c2n1,"2.51 µM [rising, partial curve]"
14,Cc1ccc(-c2cc3nc(C)cc(NCc4ccco4)n3n2)cc1,"12.6 µM [rising, partial curve]"
15,CCCc1nc(SCC(=O)Nc2cc(C)on2)c2c(=O)n(C)c(=O)n(C)c2n1,"3.16 µM [rising, full curve]"
16,Cc1sc2nc(-c3cccs3)nc(N3CCCN(C)CC3)c2c1C,"10 µM [rising, single point]"
17,O=S(=O)(NCc1ccccc1)c1cnc[nH]1,"0.158 µM [falling, full curve, poor fit]"
18,O=C(CCCNS(=O)(=O)c1cccc2nsnc12)NC1CCCCC1,"0.1 µM [falling, full curve]"
19,CC1(c2cccs2)CC(c2cccs2)=C(C#N)C(=O)N1 (stereo unspecified),"0.00316 µM [rising, full curve, poor fit]"
20,CC(C)C[C@@H](CC(=O)N[C@@H](CCCN)CC(=O)N[C@@H]1CCCC[C@H]1C(=O)N[C@H](CC(=O)N[C@@H](CCC(=O)O)CC(=O)O)CC(C)C)NC(=O)[C@@H]1CCCC[C@H]1N,"7.94 µM [falling, full curve, poor fit]"
21,COc1ccc(S(=O)(=O)C(C#N)c2nc3ccccc3nc2N2CCCCC2)cc1 (stereo unspecified),"10 µM [rising, partial curve]"
22,Cc1cn(C2OC(COC(=O)c3ccccc3)C(O)C2O)c(=O)[nH]c1=O (stereo unspecified),"0.251 µM [falling, full curve, poor fit]"

row,Structure (SMILES),AC50
1,COCCCNC(CC(=O)Nc1ccc(OC)cc1OC)C(=O)O (stereo unspecified),"6.31 µM [falling, partial curve]"
2,Cc1cccc(OCCSc2nnc(-c3ccoc3C)n2C)c1,"10 µM [rising, partial curve]"
3,CCCCN(c1ccccc1)c1ncnc2c1cnn2C,"2.51 µM [rising, partial curve, poor fit]"
4,CCOC(=O)c1c(C)c2c(n1C)CCC/C2=N\O,"10 µM [rising, partial curve]"
5,COc1cc2[nH]c(=S)n(C3CCCC3)c(=O)c2cc1OC,"12.6 µM [rising, single point]"
6,Cc1ccc2c(COn3nnc4ccc(S(=O)(=O)N(C)C)cc43)cc(=O)oc2c1C,"0.0631 µM [falling, partial curve]"
7,COc1ccc(Cn2c3nc4ccccc4nc3c3c(=O)n(Cc4ccco4)c(C)nc32)cc1,"12.6 µM [rising, partial curve]"
8,Cc1ccc(NC(=O)N(CCCN2CCOCC2)Cc2cc3cc4c(cc3[nH]c2=O)OCO4)cc1,"12.6 µM [rising, partial curve]"
9,Cc1cc(C)c2c(c1)OC(O)(C(F)F)CC2=O (stereo unspecified),"3.98 µM [falling, partial curve]"
10,CCC(=O)c1ccc(N2CCN(C(=O)c3ccc(Br)cc3)CC2)c(F)c1,"2 µM [rising, single point]"
11,OC(COc1cccc(OCC(O)CN2CCCC2)c1)CN1CCCC1 (stereo unspecified),"0.00316 µM [falling, full curve, poor fit]"
12,CC1CC2(CC(C)(C(=O)CSc3n[nH]c(-c4ccccc4Cl)n3)OC2=O)C(=O)O1 (stereo unspecified),"0.00398 µM [falling, full curve, poor fit]"
13,CCN1C(=O)C2(C(C#N)=C(N)Oc3n[nH]c(C(C)C)c32)c2ccccc21 (stereo unspecified),"12.6 µM [falling, single point]"
14,COc1ccc(-c2cn3c(n2)CCC3)cc1,"5.01 µM [falling, single point]"
15,CN1CCN(c2ncc3nc(-c4cn(C)c5ccccc45)c(=O)n(Cc4cccs4)c3n2)CC1,"2.51 µM [rising, partial curve]"
16,Cc1cc(OCC(=O)N2CCCC2)ccc1Cl,"0.631 µM [rising, single point]"
17,CC(C)(Oc1cccc2ccccc12)C(=O)O,"0.00794 µM [rising, full curve, poor fit]"
18,Cc1cc2nc(-c3cccc(NC(=O)c4ccc(Br)o4)c3C)oc2cc1C,"1 µM [falling, partial curve]"
19,CCCCOCCCNS(=O)(=O)c1ccccc1,"5.01 µM [falling, partial curve, poor fit]"
20,COc1ccc2[nH]c3nc(SCc4nnc(-c5ccccc5)o4)nnc3c2c1,"2 µM [rising, partial curve]"
21,O=C(CC1SC(=O)N(c2ccccc2)C1=O)Nc1ccccc1 (stereo unspecified),"5.01 µM [falling, partial curve]"
22,COc1ccccc1N1CCN(C(=O)c2cc(-c3ccc(Cl)cc3)on2)CC1,"25.1 µM [rising, single point]"

# Fetched one by one from the entries so far, two records:
row,Structure (SMILES),AC50
10,CCC(=O)c1ccc(N2CCN(C(=O)c3ccc(Br)cc3)CC2)c(F)c1,"2 µM [rising, single point]"
15,CN1CCN(c2ncc3nc(-c4cn(C)c5ccccc45)c(=O)n(Cc4cccs4)c3n2)CC1,"2.51 µM [rising, partial curve]"

# Continued.

row,Structure (SMILES),AC50
1,CCOc1ccc(N(CC(=O)N2CC=C(c3ccccc3)CC2)S(=O)(=O)c2c(C)noc2C)cc1,"10 µM [falling, partial curve]"
2,O=C(Oc1ccccc1)N1CCN(c2ccc(F)cc2)CC1,"0.398 µM [rising, full curve, poor fit]"
3,CCOc1ccc2nc(NCCNS(=O)(=O)c3ccccc3)c(C#N)cc2c1,"10 µM [rising, partial curve]"
4,Cc1c(C(=O)O)oc2ccc(S(=O)(=O)N3CCC(C)CC3)cc12,"0.631 µM [falling, single point]"
5,CN1CCc2cccc3c2[C@@H]1Cc1ccc(O)c(O)c1-3,"25.1 µM [falling, single point]"
6,Cc1nc(-c2cnn(-c3ccccc3)c2)c2cc(C)oc2n1,"3.98 µM [rising, partial curve]"
7,CCOC(=O)N1CCN(C(=O)c2cn(C)c3ccc(S(=O)(=O)N4CCCC4)cc3c2=O)CC1,"0.0631 µM [falling, full curve]"
8,CC(=O)Nc1cccc(NC(=O)CSc2nnnn2C(C)C)c1,"3.16 µM [falling, partial curve, poor fit]"
9,CC(=O)c1c(C)[nH]c(C(=O)CSc2nc3ccccc3c(=O)n2CCCN2CCOCC2)c1C,"0.00398 µM [falling, full curve, poor fit]"
10,COc1ccc(C2CC(C(F)(F)F)n3nc(C(N)=O)c(Cl)c3N2)cc1OC (stereo unspecified),"12.6 µM [rising, single point]"
11,N#Cc1c(N)c(C#N)c(-c2ccc(O)cc2)c2c1CCCC2,"12.6 µM [falling, single point]"
12,CCN(CC)CCN(Cc1cc2cc(C)ccc2[nH]c1=O)C(=O)Nc1ccccc1OC,"0.02 µM [falling, full curve, poor fit]"
13,C=CCn1c(=N)c(C(=O)NCCCOC)cc2c(=O)n3ccccc3nc21,"12.6 µM [rising, partial curve]"
14,O=c1cnc2cncnc2n1Cc1ccccc1,"12.6 µM [rising, partial curve]"
15,CCc1ccccc1NC(=O)c1cnc2scc(C)n2c1=O,"12.6 µM [rising, single point]"
16,Cc1ccc(-n2c(SCc3cn4ccsc4n3)nc3ccccc3c2=O)cc1,"1.26 µM [rising, partial curve]"
17,CCC/C=C(\CCC)C(NS(=O)(=O)c1ccc(C(F)(F)F)cc1)c1ccccc1 (stereo unspecified),"2.51 µM [rising, full curve]"
18,CCOC(=O)/C(C#N)=C1/C=C(C)NC(c2ccccc2O)=N1,"0.126 µM [rising, full curve]"
19,COC(=O)CSc1nc2ccccc2c(=O)n1C,"5.01 µM [falling, single point]"
20,O=C(CN1CCN(S(=O)(=O)c2ccc(Cl)cc2)CC1)Nc1ccc2c(c1)OCCO2,"7.94 µM [falling, partial curve]"
21,CCCCOCCCn1c(-c2ccco2)nc2nc3ccccc3nc21,"12.6 µM [rising, partial curve]"
22,CCCn1c(SCc2ccc(Cl)cc2)nc2c1c(=O)[nH]c(=O)n2C,"12.6 µM [rising, partial curve]"

# Reference: PubChem BioAssay AID662 (National Center for Advancing Translational Sciences (NCATS), 2007)
